Source: article PMC10874396, “Spatiotemporal and direct capturing global substrates of lysine-modifying enzymes in living cells” (Nature Communications, 2024)
These are yes or no findings as the source states them, for the method shown. In cells and extracts the contact can be indirect. Some results given as binding are weak or reduced against the parent protein; the word gives no strength.

The chains behind the UniProt entries cited, without tags or fusion partners.
UniProt P21889: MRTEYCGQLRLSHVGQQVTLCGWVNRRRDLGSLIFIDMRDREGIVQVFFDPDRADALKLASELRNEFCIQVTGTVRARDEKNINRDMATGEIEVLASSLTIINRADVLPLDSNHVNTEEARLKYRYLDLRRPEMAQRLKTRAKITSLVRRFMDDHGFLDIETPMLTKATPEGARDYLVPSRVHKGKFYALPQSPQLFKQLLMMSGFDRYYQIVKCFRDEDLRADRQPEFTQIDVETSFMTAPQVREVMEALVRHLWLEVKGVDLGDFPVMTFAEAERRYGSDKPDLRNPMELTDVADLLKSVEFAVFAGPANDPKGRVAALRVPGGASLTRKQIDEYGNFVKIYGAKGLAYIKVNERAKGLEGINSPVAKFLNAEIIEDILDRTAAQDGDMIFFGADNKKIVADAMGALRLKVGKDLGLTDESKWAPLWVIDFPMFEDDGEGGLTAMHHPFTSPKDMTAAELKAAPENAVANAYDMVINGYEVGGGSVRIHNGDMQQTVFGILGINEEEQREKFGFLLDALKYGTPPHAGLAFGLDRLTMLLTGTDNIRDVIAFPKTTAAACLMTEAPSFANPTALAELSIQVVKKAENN
UniProt P07813: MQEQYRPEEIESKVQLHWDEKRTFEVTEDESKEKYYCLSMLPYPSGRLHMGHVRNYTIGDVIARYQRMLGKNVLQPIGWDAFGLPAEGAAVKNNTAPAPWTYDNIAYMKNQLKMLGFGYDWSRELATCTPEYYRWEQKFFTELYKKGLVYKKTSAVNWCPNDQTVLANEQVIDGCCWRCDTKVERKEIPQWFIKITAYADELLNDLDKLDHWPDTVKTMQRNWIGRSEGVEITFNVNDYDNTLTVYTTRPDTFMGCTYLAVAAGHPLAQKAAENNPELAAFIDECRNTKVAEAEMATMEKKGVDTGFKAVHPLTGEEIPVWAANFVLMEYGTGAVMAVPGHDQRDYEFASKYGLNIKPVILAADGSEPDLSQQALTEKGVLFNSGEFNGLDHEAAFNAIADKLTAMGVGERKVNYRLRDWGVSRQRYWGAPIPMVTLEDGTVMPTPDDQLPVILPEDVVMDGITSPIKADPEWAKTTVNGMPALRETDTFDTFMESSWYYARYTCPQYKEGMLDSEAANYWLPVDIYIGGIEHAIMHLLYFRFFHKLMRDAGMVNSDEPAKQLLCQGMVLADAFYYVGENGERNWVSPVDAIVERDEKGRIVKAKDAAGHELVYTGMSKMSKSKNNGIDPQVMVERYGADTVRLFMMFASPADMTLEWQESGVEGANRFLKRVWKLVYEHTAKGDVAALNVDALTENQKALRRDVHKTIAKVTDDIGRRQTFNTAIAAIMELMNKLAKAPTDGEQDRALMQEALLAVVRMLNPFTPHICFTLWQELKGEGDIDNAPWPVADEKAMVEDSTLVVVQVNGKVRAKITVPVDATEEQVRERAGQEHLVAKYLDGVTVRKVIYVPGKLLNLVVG
UniProt P0ACI0: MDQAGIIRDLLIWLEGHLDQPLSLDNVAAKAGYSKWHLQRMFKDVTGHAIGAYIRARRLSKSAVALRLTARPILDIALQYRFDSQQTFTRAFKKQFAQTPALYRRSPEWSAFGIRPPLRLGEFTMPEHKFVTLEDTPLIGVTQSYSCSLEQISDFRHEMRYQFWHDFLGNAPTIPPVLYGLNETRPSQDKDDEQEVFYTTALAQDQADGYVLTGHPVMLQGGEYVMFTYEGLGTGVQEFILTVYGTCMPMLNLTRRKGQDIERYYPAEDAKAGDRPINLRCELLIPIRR
UniProt P0A6P1: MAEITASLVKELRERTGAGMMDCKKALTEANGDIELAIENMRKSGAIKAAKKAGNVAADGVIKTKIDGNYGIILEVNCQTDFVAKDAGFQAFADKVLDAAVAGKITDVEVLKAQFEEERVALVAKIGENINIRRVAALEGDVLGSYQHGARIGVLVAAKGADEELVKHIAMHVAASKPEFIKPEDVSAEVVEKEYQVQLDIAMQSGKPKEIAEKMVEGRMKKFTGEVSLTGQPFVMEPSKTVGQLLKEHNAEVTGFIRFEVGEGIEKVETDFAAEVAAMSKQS
UniProt P0AG30: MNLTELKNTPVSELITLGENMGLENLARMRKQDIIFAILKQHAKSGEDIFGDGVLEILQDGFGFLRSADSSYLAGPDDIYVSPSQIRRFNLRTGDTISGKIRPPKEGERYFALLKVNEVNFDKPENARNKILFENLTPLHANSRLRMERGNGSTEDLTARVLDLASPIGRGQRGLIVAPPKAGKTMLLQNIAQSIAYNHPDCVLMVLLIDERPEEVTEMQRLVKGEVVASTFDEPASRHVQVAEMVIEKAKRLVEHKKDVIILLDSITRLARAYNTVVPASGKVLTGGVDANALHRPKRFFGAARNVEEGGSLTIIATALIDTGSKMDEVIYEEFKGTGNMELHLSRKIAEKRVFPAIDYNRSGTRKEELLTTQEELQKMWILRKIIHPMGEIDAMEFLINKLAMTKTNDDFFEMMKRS

T1: TmcA-R457o-NBAK (E. coli) (UniProt P76562)
T1 sequence (chain, o-NBAK (o-nitrobenzyl alcohol-derived lysine) at 457): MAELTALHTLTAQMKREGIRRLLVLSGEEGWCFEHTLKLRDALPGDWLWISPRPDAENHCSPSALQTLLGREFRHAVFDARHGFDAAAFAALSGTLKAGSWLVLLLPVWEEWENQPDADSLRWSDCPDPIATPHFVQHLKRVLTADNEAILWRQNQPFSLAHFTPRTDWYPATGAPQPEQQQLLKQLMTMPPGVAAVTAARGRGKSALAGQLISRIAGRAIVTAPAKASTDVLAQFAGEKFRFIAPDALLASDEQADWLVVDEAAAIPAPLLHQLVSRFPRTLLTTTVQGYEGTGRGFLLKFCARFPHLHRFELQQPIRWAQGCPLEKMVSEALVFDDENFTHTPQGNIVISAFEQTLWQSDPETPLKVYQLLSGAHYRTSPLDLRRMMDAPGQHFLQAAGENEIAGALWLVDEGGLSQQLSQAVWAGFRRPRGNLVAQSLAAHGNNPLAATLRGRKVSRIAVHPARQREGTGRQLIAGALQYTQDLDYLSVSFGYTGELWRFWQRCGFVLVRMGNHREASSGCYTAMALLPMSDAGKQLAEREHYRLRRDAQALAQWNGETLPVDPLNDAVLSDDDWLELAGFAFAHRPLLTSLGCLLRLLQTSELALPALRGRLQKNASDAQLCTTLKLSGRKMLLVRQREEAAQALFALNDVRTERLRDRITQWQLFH

T2: YjaB-F77o-NBAK (E. coli) (UniProt P09163)
T2 sequence (chain, o-NBAK (o-nitrobenzyl alcohol-derived lysine) at 77): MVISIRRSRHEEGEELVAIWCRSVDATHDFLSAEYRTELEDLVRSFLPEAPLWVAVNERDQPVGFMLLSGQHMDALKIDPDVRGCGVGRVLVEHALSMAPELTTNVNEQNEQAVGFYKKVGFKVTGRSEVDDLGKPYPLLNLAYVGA

T3: YiaC-F75o-NBAK (E. coli) (UniProt P37664)
T3 sequence (chain, o-NBAK (o-nitrobenzyl alcohol-derived lysine) at 75): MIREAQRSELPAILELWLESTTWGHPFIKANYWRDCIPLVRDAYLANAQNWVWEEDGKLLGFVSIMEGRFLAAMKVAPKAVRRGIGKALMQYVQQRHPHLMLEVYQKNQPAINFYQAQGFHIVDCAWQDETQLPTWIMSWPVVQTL

B1: acnB (protein, UniProt P36683 1-865)
chain: MLEEYRKHVAERAAEGIAPKPLDANQMAALVELLKNPPAGEEEFLLDLLTNRVPPGVDEAAYVKAGFLAAIAKGEAKSPLLTPEKAIELLGTMQGGYNIHPLIDALDDAKLAPIAAKALSHTLLMFDNFYDVEEKAKAGNEYAKQVMQSWADAEWFLNRPALAEKLTVTVFKVTGETNTDDLSPAPDAWSRPDIPLHALAMLKNAREGIEPDQPGVVGPIKQIEALQQKGFPLAYVGDVVGTGSSRKSATNSVLWFMGDDIPHVPNKRGGGLCLGGKIAPIFFNTMEDAGALPIEVDVSNLNMGDVIDVYPYKGEVRNHETGELLATFELKTDVLIDEVRAGGRIPLIIGRGLTTKAREALGLPHSDVFRQAKDVAESDRGFSLAQKMVGRACGVKGIRPGAYCEPKMTSVGSQDTTGPMTRDELKDLACLGFSADLVMQSFCHTAAYPKPVDVNTHHTLPDFIMNRGGVSLRPGDGVIHSWLNRMLLPDTVGTGGDSHTRFPIGISFPAGSGLVAFAAATGVMPLDMPESVLVRFKGKMQPGITLRDLVHAIPLYAIKQGLLTVEKKGKKNIFSGRILEIEGLPDLKVEQAFELTDASAERSAAGCTIKLNKEPIIEYLNSNIVLLKWMIAEGYGDRRTLERRIQGMEKWLANPELLEADADAEYAAVIDIDLADIKEPILCAPNDPDDARPLSAVQGEKIDEVFIGSCMTNIGHFRAAGKLLDAHKGQLPTRLWVAPPTRMDAAQLTEEGYYSVFGKSGARIEIPGCSLCMGNQARVADGATVVSTSTRNFPNRLGTGANVFLASAELAAVAALIGKLPTPEEYQTYVAQVDKTAVDTYRYLNFNQLSQYTEKADGVIFQTAV
B2: gatD (protein, UniProt P0A9S3 1-346)
chain: MKSVVNDTDGIVRVAESVIPEIKHQDEVRVKIASSGLCGSDLPRIFKNGAHYYPITLGHEFSGYIDAVGSGVDDLHPGDAVACVPLLPCFTCPECLKGFYSQCAKYDFIGSRRDGGFAEYIVVKRKNVFALPTDMPIEDGAFIEPITVGLHAFHLAQGCENKNVIIIGAGTIGLLAIQCAVALGAKSVTAIDISSEKLALAKSFGAMQTFNSSEMSAPQMQSVLRELRFNQLILETAGVPQTVELAVEIAGPHAQLALVGTLHQDLHLTSATFGKILRKELTVIGSWMNYSSPWPGQEWETASRLLTERKLSLEPLIAHRGSFESFAQAVRDIARNAMPGKVLLIP
B3: hsdR (protein, UniProt P08956 1-1170)
chain: MMNKSNFEFLKGVNDFTYAIACAAENNYPDDPNTTLIKMRMFGEATAKHLGLLLNIPPCENQHDLLRELGKIAFVDDNILSVFHKLRRIGNQAVHEYHNDLNDAQMCLRLGFRLAVWYYRLVTKDYDFPVPVFVLPERGENLYHQEVLTLKQQLEQQVREKAQTQAEVEAQQQKLVALNGYIAILEGKQQETEAQTQARLAALEAQLAEKNAELAKQTEQERKAYHKEITDQAIKRTLNLSEEESRFLIDAQLRKAGWQADSKTLRFSKGARPEPGVNKAIAEWPTGKDETGNQGFADYVLFVGLKPIAVVEAKRNNIDVPARLNESYRYSKCFDNGFLRETLLEHYSPDEVHEAVPEYETSWQDTSGKQRFKIPFCYSTNGREYRATMKTKSGIWYRDVRDTRNMSKALPEWHRPEELLEMLGSEPQKQNQWFADNPGMSELGLRYYQEDAVRAVEKAIVKGQQEILLAMATGTGKTRTAIAMMFRLIQSQRFKRILFLVDRRSLGEQALGAFEDTRINGDTFNSIFDIKGLTDKFPEDSTKIHVATVQSLVKRTLQSDEPMPVARYDCIVVDEAHRGYILDKEQTEGELQFRSQLDYVSAYRRILDHFDAVKIALTATPALHTVQIFGEPVYRYTYRTAVIDGFLIDQDPPIQIITRNAQEGVYLSKGEQVERISPQGEVINDTLEDDQDFEVADFNRGLVIPAFNRAVCNELTNYLDPTGSQKTLVFCVTNAHADMVVEELRAAFKKKYPQLEHDAIIKITGDADKDARKVQTMITRFNKERLPNIVVTVDLLTTGVDIPSICNIVFLRKVRSRILYEQMKGRATRLCPEVNKTSFKIFDCVDIYSTLESVDTMRPVVVRPKVELQTLVNEITDSETYKITEADGRSFAEHSHEQLVAKLQRIIGLATFNRDRSETIDKQVRRLDELCQDAAGVNFNGFASRLREKGPHWSAEVFNKLPGFIARLEKLKTDINNLNDAPIFLDIDDEVVSVKSLYGDYDTPQDFLEAFDSLVQRSPNAQPALQAVINRPRDLTRKGLVELQEWFDRQHFEESSLRKAWKETRNEDIAARLIGHIRRAAVGDALKPFEERVDHALTRIKGENDWSSEQLSWLDRLAQALKEKVVLDDDVFKTGNFHRRGGKAMLQRTFDDNLDTLLGKFSDYIWDELA
B4: pepD (protein, UniProt P15288 1-485)
chain: MSELSQLSPQPLWDIFAKICSIPHPSYHEEQLAEYIVGWAKEKGFHVERDQVGNILIRKPATAGMENRKPVVLQAHLDMVPQKNNDTVHDFTKDPIQPYIDGEWVKARGTTLGADNGIGMASALAVLADENVVHGPLEVLLTMTEEAGMDGAFGLQGNWLQADILINTDSEEEGEIYMGCAGGIDFTSNLHLDREAVPAGFETFKLTLKGLKGGHSGGEIHVGLGNANKLLVRFLAGHAEELDLRLIDFNGGTLRNAIPREAFATIAVAADKVDVLKSLVNTYQEILKNELAEKEKNLALLLDSVANDKAALIAKSRDTFIRLLNATPNGVIRNSDVAKGVVETSLNVGVVTMTDNNVEIHCLIRSLIDSGKDYVVSMLDSLGKLAGAKTEAKGAYPGWQPDANSPVMHLVRETYQRLFNKTPNIQIIHAGLECGLFKKPYPEMDMVSIGPTITGPHSPDEQVHIESVGHYWTLLTELLKEIPAK
B5: MTOX (protein, UniProt P40874 1-372)
chain: MKYDLIIIGSGSVGAAAGYYATRAGLNVLMTDAHMPPHQHGSHHGDTRLIRHAYGEGEKYVPLVLRAQTLWDELSRHNEEDPIFVRSGVINLGPADSTFLANVAHSAEQWQLNVEKLDAQGIMARWPEIRVPDNYIGLFETDSGFLRSELAIKTWIQLAKEAGCAQLFNCPVTAIRHDDDGVTIETADGEYQAKKAIVCAGTWVKDLLPELPVQPVRKVFAWYQADGRYSVKNKFPAFTGELPNGDQYYGFPAENDALKIGKHNGGQVIHSADERVPFAEVASDGSEAFPFLRNVLPGIGCCLYGAACTYDNSPDEDFIIDTLPGHDNTLLITGLSGHGFKFASVLGEIAADFAQDKKSDFDLTPFRLSRFQ
B6: FolC (protein, UniProt P08192 1-422)
chain: MIIKRTPQAASPLASWLSYLENLHSKTIDLGLERVSLVAARLGVLKPAPFVFTVAGTNGKGTTCRTLESILMAAGYKVGVYSSPHLVRYTERVRVQGQELPESAHTASFAEIESARGDISLTYFEYGTLSALWLFKQAQLDVVILEVGLGGRLDATNIVDADVAVVTSIALDHTDWLGPDRESIGREKAGIFRSEKPAIVGEPEMPSTIADVAQEKGALLQRRGVEWNYSVTDHDWAFSDAHGTLENLPLPLVPQPNAATALAALRASGLEVSENAIRDGIASAILPGRFQIVSESPRVIFDVAHNPHAAEYLTGRMKALPKNGRVLAVIGMLHDKDIAGTLAWLKSVVDDWYCAPLEGPRGATAEQLLEHLGNGKSFDSVAQAWDAAMADAKAEDTVLVCGSFHTVAHVMEVIDARRSGGK
B7: FKBP-type 22 kDa peptidyl-prolyl cis-trans isomerase (FKBP22) (protein, UniProt P0A9L3 1-206)
chain: MTTPTFDTIEAQASYGIGLQVGQQLSESGLEGLLPEALVAGIADALEGKHPAVPVDVVHRALREIHERADAVRRQRFQAMAAEGVKYLEENAKKEGVNSTESGLQFRVINQGEGAIPARTDRVRVHYTGKLIDGTVFDSSVARGEPAEFPVNGVIPGWIEALTLMPVGSKWELTIPQELAYGERGAGASIPPFSTLVFEVELLEIL

biological target: T1, TmcA-R457o-NBAK (E. coli); test: cross-linking; crosslinked peptides/sites between the o-NBAK enzyme and substrate lysines identified by LC-MS/MS (MeroX) directly from cell lysate samples of in-cell crosslinked E. coli

Question: How did the binding turn out when aspS (from UniProt P21889 1-590) was run?
Answer: binds

Question: How did the binding turn out when leuS (from UniProt P07813 1-860) was run?
Answer: binds

Question: Which binding does the source give for B1 here?
Answer: binds

Question: B2 was tested. Which binding did it give?
Answer: binds

Question: Which binding does the source give for B3 here?
Answer: binds

Question: With B4 as the molecule, how does the binding read?
Answer: binds

biological target: T2, YjaB-F77o-NBAK (E. coli); test: cross-linking; photo-crosslinking in living E. coli BL21(DE3) cells expressing the o-NBAK enzyme (365 nm UV 20 min on ice, -UV as control); lysis, Ni-NTA enrichment, SDS-PAGE, bands above the free enzyme cut, LC-MS/MS with label-free quantification (+UV/-UV ratio >2, p < 0.05)

Question: For Rob (from UniProt P0ACI0 1-289), which binding is on record?
Answer: binds

Question: EF-Ts (from UniProt P0A6P1 1-283) was tested. Which binding did it give?
Answer: binds

Question: Which binding does the source give for Rho (from UniProt P0AG30 1-419) here?
Answer: binds

biological target: T1, TmcA-R457o-NBAK (E. coli); test: as above

Question: With B5 as the molecule, how does the binding read?
Answer: binds

Question: How did the binding turn out when B6 was run?
Answer: binds

biological target: T3, YiaC-F75o-NBAK (E. coli); test: as above

Question: For B7, which binding is on record?
Answer: binds
